# The full ranking holds about 33,000 sequences; the median of “E-score (-0.5 to 0.5)” is about -0.0014, and the highest 2% start at about 0.25. This is one part of the list.
# Molecular target: T1, Cad1 (UniProt P24813)
# T1 sequence: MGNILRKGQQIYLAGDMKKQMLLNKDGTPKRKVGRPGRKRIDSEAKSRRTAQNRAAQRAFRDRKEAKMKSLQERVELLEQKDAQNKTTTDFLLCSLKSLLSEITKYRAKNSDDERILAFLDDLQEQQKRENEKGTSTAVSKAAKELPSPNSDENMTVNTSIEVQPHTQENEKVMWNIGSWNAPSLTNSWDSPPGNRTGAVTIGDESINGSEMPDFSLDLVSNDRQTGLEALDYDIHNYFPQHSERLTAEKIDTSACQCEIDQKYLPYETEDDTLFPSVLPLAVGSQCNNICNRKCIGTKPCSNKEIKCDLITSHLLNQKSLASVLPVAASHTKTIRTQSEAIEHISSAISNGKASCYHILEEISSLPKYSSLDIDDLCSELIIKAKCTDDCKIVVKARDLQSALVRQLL
# Test: PBM E-score (8-mer binding enrichment) (E-score (-0.5 to 0.5)); higher = stronger / more preferred TF binding
# Conditions: protein concentration: 100 nM; construct: GST-full length
# How it was run: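 Detection of bound protein used fluorescent anti-GST, with scans normalised by masliner. The proteins were GST-tagged yeast transcription factors applied at about 100-200 nM to universal all-10-mer Agilent arrays made double-stranded by primer extension. Each ungapped eight-base word, pooled with its reverse complement, was scored with an E-score from the Universal PBM Analysis Suite.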
row,Sequence,PBM E-score
1,CACCCACC,-0.0145
2,CCCCAGAA,-0.154
3,ACCAATGG,-0.069
4,TAAGCGCA,0.144
5,ACTTCCCT,-0.0618
6,CAGGCGTA,0.19
7,TAAGTTGA,0.00888
8,CCCAGAGC,-0.178
9,GGCATACA,-0.0281
10,ACAGTCAC,-0.0959
11,GGTTCACA,0.164
12,GAGTGCCC,-0.055
13,AGAGCTCT,-0.28
14,AGCCCGAG,-0.154
15,CGGCCAGC,-0.205
16,GGCGATGA,-0.172
17,ACCAGCAC,-0.0475
18,CCAAGCCG,-0.0394
19,AATTGTCG,0.0794
20,AAGGAGTA,-0.143
21,CCTCGAAA,0.03
22,CGACGTGC,-0.048
23,ATCGTCTA,0.0165
24,CGAACTTA,0.0337
25,AGTCGACA,0.22

row,Sequence,PBM E-score
1,CTTAACTC,0.0365
2,TATGGCCA,0.145
3,CCGCAGAA,0.179
4,ATGACCCG,-0.112
5,GCATACGA,-0.0714
6,AAGCGTGC,0.0124
7,TCTTTGCA,0.0891
8,CATGTAGC,-0.0406
9,CGTTTTCC,0.0584
10,CTCAACCC,0.00668
11,GCCACCAC,-0.258
12,CACTTGCC,-0.114
13,CATGACCC,-0.205
14,CTCAGGTC,0.0134
15,CTGCCTAA,-0.14
16,GGAACAGA,-0.0833
17,ATTTATGG,0.0916
18,ACTTGGCA,-0.103
19,CGTAGCAG,-0.105
20,GGACTTCA,-0.151
21,ACTACAAG,0.0126
22,ACTTCGCG,0.216
23,CGACGCAC,-0.011
24,GATGGACC,0.00457
25,AGCCTATG,-0.125

row,Sequence,PBM E-score
1,GTTCTCAA,0.138
2,CGCTTTCA,0.144
3,GACATGAA,0.0697
4,CGCGCACG,0.0231
5,CGTCTGTC,-0.075
6,CTACAAGA,-0.173
7,AATACTCG,0.114
8,AACTATAA,0.105
9,TAAGCCTA,0.151
10,CTTCTAAC,-0.2
11,CAGCTCCG,0.0823
12,CTCTAACC,-0.275
13,GCGACATA,0.119
14,AGGGTACC,-0.257
15,ATGATCGA,-0.0582
16,ACGGATCC,-0.0362
17,GATATGCA,0.111
18,CAATGTGC,0.0851
19,AATTCACC,0.0701
20,GATATCCC,0.174
21,AAGATGGC,-0.131
22,GACGTTAC,0.00241
23,GTCTGGAA,-0.111
24,AAGGAGCG,-0.166
25,AGTAGAAA,0.108

row,Sequence,PBM E-score
1,CGATGTTA,0.11
2,CAACTTAA,0.0842
3,CCTGTGCG,-0.0406
4,CGGGGAAA,0.0522
5,TGCCATAA,-0.0398
6,GAAGTAAC,0.113
7,CACTTACC,0.0641
8,GTGTGATA,0.186
9,AGGTTTAT,0.0989
10,TACCCTAA,-0.0491
11,GTGCAACA,0.0165
12,AAACTGAT,0.0819
13,GCTAACAA,0.0562
14,GGCGTGCA,0.0576
15,AAGTCTTA,-0.14
16,GTAACAAC,0.095
17,AACCAGTA,0.157
18,GTGCATGA,0.0119
19,ACCATAGA,-0.129
20,CTCATCGC,-0.133
21,CGTCGATC,0.203
22,CTAACAAA,0.158
23,TACACACA,0.061
24,GCCGTCTA,-0.0651
25,CATGTTGA,0.243

# No new results follow: entries from further up.
row,Sequence,PBM E-score
10,CTCAACCC,0.00668
11,GCCACCAC,-0.258
12,CACTTGCC,-0.114
13,CATGACCC,-0.205
14,CTCAGGTC,0.0134
15,CTGCCTAA,-0.14
16,GGAACAGA,-0.0833
17,ATTTATGG,0.0916
18,ACTTGGCA,-0.103
19,CGTAGCAG,-0.105
20,GGACTTCA,-0.151
21,ACTACAAG,0.0126
22,ACTTCGCG,0.216
23,CGACGCAC,-0.011
24,GATGGACC,0.00457
25,AGCCTATG,-0.125
1,GTTCTCAA,0.138
2,CGCTTTCA,0.144
3,GACATGAA,0.0697
4,CGCGCACG,0.0231
5,CGTCTGTC,-0.075
6,CTACAAGA,-0.173
7,AATACTCG,0.114
8,AACTATAA,0.105
9,TAAGCCTA,0.151
10,CTTCTAAC,-0.2
11,CAGCTCCG,0.0823
12,CTCTAACC,-0.275
13,GCGACATA,0.119
14,AGGGTACC,-0.257
15,ATGATCGA,-0.0582
16,ACGGATCC,-0.0362
17,GATATGCA,0.111
18,CAATGTGC,0.0851
19,AATTCACC,0.0701
20,GATATCCC,0.174
21,AAGATGGC,-0.131
22,GACGTTAC,0.00241
23,GTCTGGAA,-0.111
24,AAGGAGCG,-0.166
25,AGTAGAAA,0.108
1,CGATGTTA,0.11

# Following part.

row,Sequence,PBM E-score
1,GCATAGTA,-0.0191
2,AAGACGTG,0.0203
3,AGATTGAT,-0.0358
4,TCTTCAAA,-0.0389
5,ATCCCTTA,-0.0404
6,CCATGCTA,-0.127
7,ATCTGTCG,0.0745
8,AGGCACGG,0.0172
9,ATAATGAG,0.0901
10,CACACCTG,-0.232
11,GCCTACCA,-0.141
12,CTCAGTTC,-0.0283
13,TAATACTA,0.303
14,ACTGACTG,-0.0382
15,CCTAATGC,-0.146
16,ACGGAGCC,-0.219
17,AGGCGTAC,0.0312
18,AACGGACA,0.235
19,CTGATAAC,-0.106
20,ATCTAAAA,0.00312
21,ACCCGAAT,0.0321
22,AATTTTTC,0.145
23,CGCACTCC,-0.206
24,CGTTCGCC,-0.204
25,CAGGGGAA,-0.168

row,Sequence,PBM E-score
1,GAACCGCC,-0.0961
2,TCCCCGGA,-0.0362
3,CTAGTTTC,0.0946
4,CGTAAGGC,0.0848
5,GAAAATTC,0.167
6,TCCTCGAA,-0.0511
7,GACTTAGC,-0.0912
8,ACTTGTAG,0.00244
9,ACCTCGGC,0.138
10,ACAGTGCC,-0.00411
11,CACAATCA,0.00489
12,GGATACAC,0.105
13,AGACGCAT,-0.00538
14,CCATAAAG,-0.145
15,ATCTTGCC,0.0506
16,ATCCGCAC,0.11
17,CTGAGGGC,-0.223
18,ATAAATAT,0.179
19,CGGTATCC,-0.0516
20,TTACCCAA,-0.144
21,ACCACACT,0.0497
22,ATCCCTCC,0.0298
23,CGTGTAAC,-0.0789
24,TAGCTTGA,-0.0678
25,CCCTCGCG,0.0362

row,Sequence,PBM E-score
1,TAGTGCGA,0.0537
2,GACGAAGA,-0.119
3,ATAATTGA,0.149
4,GAGATTAC,0.0954
5,CGCACGGA,0.0086
6,TCGCACCA,0.0505
7,GCGGCCAC,-0.175
8,CGGTCGCC,-0.0194
9,CTACACCC,-0.0312
10,CGACCGTC,-0.131
11,ACAACCGA,0.0584
12,ATTATGCC,0.0752
13,AGCTACCC,-0.0472
14,CAGACATG,-0.139
15,AAACCTCG,0.0478
16,ACAGTCCT,0.0222
17,ATTGAAGA,-0.0755
18,ATCCTCAC,0.0838
19,AATTCACT,0.171
20,AGCGCGCG,0.311
21,GCTCGCTA,-0.0118
22,AGTACCAT,-0.0404
